# According to doi:10.1101/2023.10.24.563883:
# Protein sequences, listed by entry. Tags and fused reporters are not part of them. Residues count along the entry.
# UniProt Q99PJ1, residues 27-1943: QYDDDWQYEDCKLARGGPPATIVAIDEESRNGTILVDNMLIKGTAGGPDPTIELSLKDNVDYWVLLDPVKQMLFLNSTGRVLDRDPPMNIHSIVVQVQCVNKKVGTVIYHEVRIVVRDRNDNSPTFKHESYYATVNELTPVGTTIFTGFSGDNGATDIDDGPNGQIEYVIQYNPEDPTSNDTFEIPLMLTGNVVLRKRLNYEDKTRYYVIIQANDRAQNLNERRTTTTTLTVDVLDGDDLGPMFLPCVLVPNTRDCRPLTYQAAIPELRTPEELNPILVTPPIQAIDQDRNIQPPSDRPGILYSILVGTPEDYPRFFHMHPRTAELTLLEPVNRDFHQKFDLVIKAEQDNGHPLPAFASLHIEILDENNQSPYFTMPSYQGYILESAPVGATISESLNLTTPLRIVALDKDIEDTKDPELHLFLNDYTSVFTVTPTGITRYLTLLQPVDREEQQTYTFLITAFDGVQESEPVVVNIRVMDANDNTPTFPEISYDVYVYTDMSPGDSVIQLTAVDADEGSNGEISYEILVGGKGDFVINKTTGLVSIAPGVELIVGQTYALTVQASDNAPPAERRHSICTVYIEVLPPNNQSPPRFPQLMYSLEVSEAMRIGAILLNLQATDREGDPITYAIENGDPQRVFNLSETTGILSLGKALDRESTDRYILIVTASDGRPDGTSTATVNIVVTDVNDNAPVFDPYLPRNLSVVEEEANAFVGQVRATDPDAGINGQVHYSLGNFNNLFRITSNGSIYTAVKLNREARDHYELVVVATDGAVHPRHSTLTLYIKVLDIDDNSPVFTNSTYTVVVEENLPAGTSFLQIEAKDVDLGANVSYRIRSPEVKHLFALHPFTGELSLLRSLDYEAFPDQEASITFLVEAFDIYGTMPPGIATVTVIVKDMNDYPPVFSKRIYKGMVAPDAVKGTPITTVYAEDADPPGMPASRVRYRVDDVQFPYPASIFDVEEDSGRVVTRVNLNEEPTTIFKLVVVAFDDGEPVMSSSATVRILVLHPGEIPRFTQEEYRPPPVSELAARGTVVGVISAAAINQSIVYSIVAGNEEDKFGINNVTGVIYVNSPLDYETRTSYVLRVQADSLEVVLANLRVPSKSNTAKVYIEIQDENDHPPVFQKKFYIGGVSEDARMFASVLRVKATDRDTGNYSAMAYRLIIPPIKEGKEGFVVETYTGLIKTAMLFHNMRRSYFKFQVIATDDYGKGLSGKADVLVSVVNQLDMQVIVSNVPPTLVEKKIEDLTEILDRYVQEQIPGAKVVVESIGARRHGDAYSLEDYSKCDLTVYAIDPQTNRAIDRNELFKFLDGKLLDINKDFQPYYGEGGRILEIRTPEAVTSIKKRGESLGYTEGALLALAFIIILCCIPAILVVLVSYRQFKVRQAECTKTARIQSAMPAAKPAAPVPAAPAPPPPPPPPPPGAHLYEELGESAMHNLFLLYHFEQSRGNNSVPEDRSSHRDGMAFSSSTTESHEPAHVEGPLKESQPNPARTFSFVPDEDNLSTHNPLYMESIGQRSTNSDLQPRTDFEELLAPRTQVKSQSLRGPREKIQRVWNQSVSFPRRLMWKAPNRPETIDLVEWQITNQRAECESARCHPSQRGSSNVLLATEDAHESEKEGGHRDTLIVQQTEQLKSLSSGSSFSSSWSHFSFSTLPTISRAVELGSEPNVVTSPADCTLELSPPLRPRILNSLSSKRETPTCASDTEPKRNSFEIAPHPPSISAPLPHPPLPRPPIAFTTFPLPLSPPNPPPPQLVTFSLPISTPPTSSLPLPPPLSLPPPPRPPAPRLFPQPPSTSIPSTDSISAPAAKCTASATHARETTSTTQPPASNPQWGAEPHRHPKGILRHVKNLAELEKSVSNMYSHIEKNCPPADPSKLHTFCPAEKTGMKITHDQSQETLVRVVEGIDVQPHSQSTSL
# Results are given in words; binding and its absence hold for the method and conditions named. In cells and extracts the contact can be indirect. Some results given as binding are weak or reduced against the parent protein; the word gives no strength.
# T1: LPHN2 (endogenous, mouse cochlea) (mouse (endogenous in cochlea)) (UniProt Q8JZZ7)
# T1 sequence: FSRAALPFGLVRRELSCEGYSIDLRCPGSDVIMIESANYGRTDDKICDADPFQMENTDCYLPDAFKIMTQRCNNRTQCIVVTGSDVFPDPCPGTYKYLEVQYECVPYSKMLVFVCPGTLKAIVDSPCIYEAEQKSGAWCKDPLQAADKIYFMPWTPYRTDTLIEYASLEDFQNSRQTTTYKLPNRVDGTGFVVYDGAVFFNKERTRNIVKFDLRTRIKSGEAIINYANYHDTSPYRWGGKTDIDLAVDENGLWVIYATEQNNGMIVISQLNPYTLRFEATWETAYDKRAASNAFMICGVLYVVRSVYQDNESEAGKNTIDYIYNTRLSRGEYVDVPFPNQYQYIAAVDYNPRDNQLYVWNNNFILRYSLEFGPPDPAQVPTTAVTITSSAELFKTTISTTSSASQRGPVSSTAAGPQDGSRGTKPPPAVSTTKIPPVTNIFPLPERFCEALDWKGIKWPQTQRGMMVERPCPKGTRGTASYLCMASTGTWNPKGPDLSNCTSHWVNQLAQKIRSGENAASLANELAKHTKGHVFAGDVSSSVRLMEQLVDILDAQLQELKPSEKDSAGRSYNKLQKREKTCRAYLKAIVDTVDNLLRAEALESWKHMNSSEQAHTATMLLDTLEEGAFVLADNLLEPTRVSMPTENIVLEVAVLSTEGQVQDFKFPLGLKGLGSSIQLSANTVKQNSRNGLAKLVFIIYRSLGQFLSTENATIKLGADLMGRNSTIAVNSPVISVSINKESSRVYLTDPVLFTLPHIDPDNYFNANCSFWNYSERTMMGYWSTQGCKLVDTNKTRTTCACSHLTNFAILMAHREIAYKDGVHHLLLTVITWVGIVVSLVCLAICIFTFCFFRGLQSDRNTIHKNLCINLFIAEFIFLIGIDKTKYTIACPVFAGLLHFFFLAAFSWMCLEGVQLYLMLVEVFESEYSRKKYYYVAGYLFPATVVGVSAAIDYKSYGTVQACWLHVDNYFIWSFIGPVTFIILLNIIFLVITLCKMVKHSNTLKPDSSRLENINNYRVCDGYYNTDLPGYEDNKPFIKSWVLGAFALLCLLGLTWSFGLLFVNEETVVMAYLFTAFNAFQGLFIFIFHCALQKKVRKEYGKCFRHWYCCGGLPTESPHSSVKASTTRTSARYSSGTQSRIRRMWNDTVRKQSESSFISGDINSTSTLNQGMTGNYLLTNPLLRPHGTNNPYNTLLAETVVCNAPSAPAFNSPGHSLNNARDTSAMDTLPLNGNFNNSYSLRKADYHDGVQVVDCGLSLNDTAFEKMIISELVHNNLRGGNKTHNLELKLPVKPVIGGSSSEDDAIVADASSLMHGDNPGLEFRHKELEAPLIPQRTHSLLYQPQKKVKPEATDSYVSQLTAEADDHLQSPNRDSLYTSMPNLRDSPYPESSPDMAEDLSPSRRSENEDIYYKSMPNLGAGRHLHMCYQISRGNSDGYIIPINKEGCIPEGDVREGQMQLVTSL
# Molecular target: T1, LPHN2 (endogenous, mouse cochlea) (mouse (endogenous in cochlea))
# Test: co-IP
row,binding,Molecule
1,binds,"PCDH15 (endogenous, mouse cochlea) (from UniProt Q99PJ1 27-1943)"
2,binds,"TMIE (endogenous, mouse cochlea) (protein, UniProt Q8K467 29-153) QLVEPSTAPPKPKPPPLTKETVVFWDMRLWHVVGIFSLFVLSIIITLCCVFNCRVPRTRKEIEARYLQRKAAKMYTDKLETVPPLNELTEIPGEDKKKKKKDSVDTVAIKVEEDEKNEAKKKGEK"
3,binds,"TMC1 (endogenous, mouse cochlea) (protein, UniProt Q8R4P5 1-757) MLQIQVEEKEEDTEESSSEEEEDKLPRRESLRPKRKRTRDVINEDDPEPEPEDEETRKAREKERRRRLRRGAEEEEEIDEEELERLKALLDENRQMIATVKCKPWKMEKKIEVLKEAKKFVSENEGALGKGKGKKWFAFKMMMAKKWAKFLRDFENFKAACVPWENKIKAIESQFGSSVASYFLFLRWMYGVNMVLFVLTFSLIMLPEYLWGLPYGSLPRKTVPRAEEASAANFGVLYDFNGLAQYSVLFYGYYDNKRTIGWLNFRLPLSYFLVGIMCIGYSFLVVLKAMTKNIGDDGGGDDNTFNFSWKVFCSWDYLIGNPETADNKFNSITMNFKEAIIEERAAQVEENIHLIRFLRFLANFFVFLTLGASGYLIFWAVKRSQEFAQQDPDTLGWWEKNEMNMVMSLLGMFCPTLFDLFAELEDYHPLIALKWLLGRIFALLLGNLYVFILALMDEINNKIEEEKLVKANITLWEANMIKAYNESLSGLSGNTTGAPFFVHPADVPRGPCWETMVGQEFVRLTVSDVLTTYVTILIGDFLRACFVRFCNYCWCWDLEYGYPSYTEFDISGNVLALIFNQGMIWMGSFFAPSLPGINILRLHTSMYFQCWAVMCCNVPEARVFKASRSNNFYLGMLLLILFLSTMPVLYMIVSLPPSFDCGPFSGKNRMFEVIGETLEHDFPSWMAKILRQLSNPGLVIAVILVMVLTIYYLNATAKGQKAANLDLKKKMKQQALENKMRNKKMAAARAAAAAGGQ"
